Data on 38 compounds can be found in PubChem BioAssay AID2685 (National Center for Advancing Translational Sciences (NCATS), 2010).

Where “and” joins values, the source holds several entries; their conditions need not be identical. Equal entries are not always repeated. The list shows a part of the results. Shown are side measurements of this screen, not its main read-out; they come without a call. Most of these compounds were active or inconclusive in the main read-out, so they are no random draw. The note in brackets gives the kind of curve behind each potency; many fits are weak.

This assay can be described thus: qHTS Assay for Lipid Storage Modulators in Drosophila S3 Cells.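 For cell number change: cells counted by Cell Tracker Red CMTPX staining in the red channel.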 Particulars: BODIPY lipid droplet fluorescence, 18-24 h; for cell number change: measured here: cell count max response, cells fed with added oleic acid. The method, boiled down: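 Drosophila S3 cells got compounds at several concentrations plus oleic acid (400 uM solution). Laser-scanning cytometry with 488 nm excitation read lipid droplets at 500-530 nm and cells at 575-640 nm. Percent activity was relative to 20 uM Triacsin C.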
A general note: qHTS replaces the single test concentration by a dilution series.

Where [1] appears, read: measured here: cell number channel AC50, cells fed with added oleic acid.
[2] abbreviates: measured here: lipid fluorescence (Fed channel) AC50, cells fed with added oleic acid.

Consider `CCC1(c2ccccc2)NC(=O)N(CC(=O)NCc2ccncc2)C1=O` (centres undefined), for which the cell number change was determined as 39.7%. The AC50 (as a rule, the midpoint of the concentration-response curve, whichever way the signal moves) under setting [1] was 29.1 µM [rising, single point].

As to `CC(=O)CSc1ncnc2c1oc1ccccc12`, the cell number change was found to be 5.49%.

In the case of `Cc1ccc(N(Cc2cc3ccccc3[nH]c2=O)C(=O)c2ccco2)c(C)c1`, the cell number change was found to be 9.43%. Also, the half-maximal activity concentration (AC50) under setting [2] was 2.31 µM [rising, partial curve].

With `CN(Cc1nccn1C)C(=O)C1CCC(=O)N(CCc2ccc(Cl)cc2)C1` (centres undefined), the cell number change worked out at 16.7%.

Turning to `CCCCOc1ccc(C(=O)N/C(=C/C=C/c2ccccc2)C(=O)NCCCO)cc1`, the cell number change was determined as 17%. Further, the half-maximal activity concentration (AC50) under setting [2] is 7.31 µM [rising, partial curve].

As to `COc1cc(/C=N/n2c(C)nc3ccccc3c2=O)cc(OC)c1O`, the cell number change turned out to be 27.6%. Besides, the AC50 under setting [2] is 29.1 µM [rising, single point].

`Cc1nc(-c2ccc(Cl)cc2)sc1C1(C)CC(c2cccc(Cl)c2)=NO1` (centres undefined): the cell number change was determined as 26%. Also, under setting [2], the AC50 was 10.3 µM [rising, partial curve].

Consider `CN(C)C=NCCn1c(N2CCOCC2)nc2c1c(=O)n(C)c(=O)n2C`, for which the cell number change is -96.1%. Also, the AC50 under setting [1] is 23.1 µM [falling, partial curve]. In addition, the AC50 under setting [2] is 23.1 µM [falling, partial curve].

For `OCC[C@H]1C[C@@H](O)[C@H](O)[C@]2(CCCc3ccccc3O2)O1`, the cell number change is 5.28%. Under setting [2], the AC50 is 0.651 µM [falling, single point].

For `CCCCNC(=O)c1onc(CSc2ccncc2)c1C(=O)NCCCC`, the cell number change came to 0.55%. Moreover, the AC50 under setting [2] is 0.259 µM [rising, partial curve].

In the case of `COc1ccc(CCNC(=O)CSc2nc(N)c(C#N)c(-c3cccs3)c2C#N)cc1OC`, the cell number change was -34.2%. Moreover, the AC50 under setting [1] is 23.1 µM [falling, single point]. In addition, the AC50 under setting [2] is 0.82 µM [rising, full curve, poor fit].

Consider `CCN(CC(=O)Nc1ccc2c(c1)OCCO2)Cc1cc(=O)oc2c(C)c(C)ccc12`, for which the cell number change was -36.6%. Further, under setting [1], the AC50 was 3.66 µM [falling, partial curve, poor fit].

Turning to `CSc1nc2[nH]ncc2c(=O)[nH]1`, the cell number change is -13.2%. The AC50 under setting [2] was 0.13 µM [falling, full curve, poor fit].

Turning to `CCn1nc(C)c(CN2CCC(C(=O)Nc3cccc(-c4cccc(Cl)c4)c3)CC2)c1C`, the cell number change was -13.6%. Moreover, the AC50 under setting [2] was 1.84 µM [rising, partial curve].

For the compound `COc1cc(/C=C2\CCC/C(=C\c3ccc(O)c(OC)c3)C2=O)ccc1O`, the cell number change was -38.3%. In addition, the concentration at half-maximal activity (AC50) under setting [1] is 5.17 µM [falling, partial curve]. For the same compound, the AC50 under setting [2] was 11.6 µM [falling, partial curve].

For the compound `CCN(C(=O)CN1C(=O)NC2(CCc3ccccc32)C1=O)C1CCCCC1` (centres undefined), the cell number change was 28%.

On to `O=C(CSc1ncccc1-c1nc2ccccc2[nH]1)N1CCc2ccccc21`, for which the cell number change is -9.94%. Also, the AC50 under setting [2] is 0.82 µM [rising, full curve].

`N#CC(C#N)=C(Nc1ccc(F)cc1)SCc1cccc(F)c1`: the cell number change was -36.9%. For the same compound, under setting [1], the AC50 is 1.16 µM [falling, full curve]. For the same compound, the AC50 under setting [2] is 1.64 µM [falling, full curve].

On to `COc1ccc(Cn2nnnc2C(c2ccc3ncccc3c2)N2CCN(C3CCCCC3)CC2)cc1` (centres undefined), for which the cell number change was -2.24%. Also, the concentration at half-maximal activity (AC50) under setting [1] was 0.146 µM [falling, full curve, poor fit].

On to `O=C(Nc1cccc(S(=O)(=O)NC2=NCCC2)c1)C1CCCCC1`, for which the cell number change was -4.06%.

On to `Cc1cc(Cl)ccc1OCC(=O)Nc1nc(-c2cccs2)cs1`, for which the cell number change is -1.21%. For the same compound, the AC50 under setting [2] was 6.51 µM [falling, single point].

Consider `CCN(CCO)C(=O)C12CCC(C)(C(=O)C1)C2(C)C` (centres undefined), for which the cell number change was -8.74%. Moreover, the AC50 under setting [2] is 0.00461 µM [falling, full curve, poor fit].

With `Cc1ccc2c(CN3CCCCC3CCO)cc(=O)oc2c1` (centres undefined), the cell number change was 0.901%.

Turning to `N#CC(=C=[N-])c1nc2ccccc2nc1-[n+]1cccc(NC(=O)c2ccccc2)c1`, the cell number change is -39.3% and -5.66%. Further, the concentration at half-maximal activity (AC50) under setting [1] was 6.51 µM [falling, full curve]. For the same compound, under setting [2], the AC50 was 6.51 µM [falling, full curve] and 29.1 µM [falling, single point].

Regarding `COc1cc(/C=C/C(=O)OCC(=O)N2CC3(C)CC2CC(C)(C)C3)ccc1O` (centres undefined), the AC50 under setting [2] is 29.1 µM [falling, partial curve].

Take `O=C(NCc1cccc(Cl)c1)c1cnn2c1NC(c1ccco1)CC2C(F)(F)F` (centres undefined): the AC50 runs as follows: under setting [1], 0.116 µM [rising, full curve, poor fit]; under setting [2], 0.326 µM [rising, partial curve, poor fit].

Regarding `Cc1ccc(C(=O)N/C(=C\c2ccco2)C(=O)NC2CCS(=O)(=O)C2)cc1` (centres undefined), the cell number change was 15.6%. Also, the AC50 under setting [2] is 0.82 µM [falling, full curve, poor fit].

In the case of `CC(C(=O)NCC1CCCCC1)N1CCc2ccccc2C1` (centres undefined), the cell number change was determined as 45.1%. Further, the AC50 under setting [1] is 16.4 µM [rising, single point].

`CCCc1nnc(NC(=O)Cn2c(=O)oc3ccccc32)s1`: the cell number change was 18.8%.

In the case of `COc1cccc(OC)c1C(=O)Nc1cccnc1`, the cell number change was -22.4%.

`COc1cccc(OC)c1C(=O)NC(=S)N1CCOCC1`: the cell number change came out at 22%. Further, the AC50 under setting [2] is 29.1 µM [rising, single point].

In the case of `Cc1ccc(S(=O)(=O)N2CCN(C(=O)CSc3nc4ccccc4o3)C2)cc1`, the cell number change was -14%. For the same compound, the concentration at half-maximal activity (AC50) under setting [2] is 18.4 µM [falling, single point].

Consider `COc1ccc(C2=NS(=O)(=O)N(C)C(C(=O)NCc3ccccc3)=C2)cc1OC`, for which the cell number change was 2.88%. Further, the concentration at half-maximal activity (AC50) under setting [2] was 32.6 µM [falling, single point].

For `N#Cc1ccc(N=c2ssnc2Cl)cc1`, the cell number change is -91% and -82.2%. The AC50 under setting [1] is 23.1 µM [falling, partial curve] and 11.6 µM [falling, partial curve]. For the same compound, under setting [2], the half-maximal activity concentration (AC50) was 18.4 µM [falling, partial curve] and 5.8 µM [falling, single point].

`O=C(Nc1nccs1)c1cc(S(=O)(=O)N2CCOCC2)ccc1Cl`: the cell number change is -18%.

For `O=C1CC(C(=O)Nc2cccc(Cl)c2)n2ncnc2N1` (centres undefined), the cell number change was -28.9%. Moreover, under setting [2], the AC50 was 16.4 µM [falling, single point].

As for `CC(C)C(c1nnnn1Cc1cccs1)N1CCN(C(=O)c2ccco2)CC1` (centres undefined), the cell number change amounted to 12.3%. The AC50 under setting [1] is 6.51 µM [rising, single point].

Regarding `O=C(Nc1ccccc1)c1ccccc1NC(=O)C(F)(F)F`, the cell number change was -21.8%. For the same compound, under setting [1], the concentration at half-maximal activity (AC50) was 6.51 µM [falling, single point]. Besides, the AC50 under setting [2] was 29.1 µM [rising, single point].
